Taken from: PubChem BioAssay AID1259331 (Drosophila RNAi Screening Center, 2017)
The deposit covers about 3,100 reagents; shown is a part drawn at random. 126 of them (4.1%) count as active. 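Calls are per reagent; zinc was so toxic that few knock-downs lowered ATP further, so most hits raise ATP.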 The raw values are shown without normalisation. Entries without a mark were called inactive. Reagents against one gene are numbered here. A plus sign joins genes that one reagent is predicted to hit. Reagent sequences are not shown. The record does not give: the amount of reagent.

Aim: 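Knock-downs that alter ATP level after a high zinc chloride dose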 (primary screen)
Cells: Drosophila S2R+ cells
Reagents: long dsRNA against Drosophila genes
Duration: 5 days (4 days knock-down, then 1 day zinc)
Challenge: zinc chloride at 15 mM final level for 1 day
Read-out: 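Total cellular ATP measured by luciferase luminescence as a viability proxy, turned into Z scores from three plate copies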
Direction: mean Z score: higher = more ATP than other wells, better survival under zinc; ATP luminescence: higher = more ATP, more viable cells
Rule for the call: 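a reagent is called a hit when its Z score is above 1.5 or below -1.5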
Meaning of the calls: active = hit, ATP up or down; inactive = not a hit

{"gene": "CG12746", "reagent no.": 1, "mean Z score": 0.0798, "ATP luminescence, replicate 1": 31845, "ATP luminescence, replicate 2": 30627}
{"gene": "CG12746", "reagent no.": 2, "mean Z score": 0.0308, "ATP luminescence, replicate 1": 46851, "ATP luminescence, replicate 2": 49760}
{"gene": "Fas3 (Fasciclin 3)", "reagent no.": 1, "mean Z score": -0.336, "ATP luminescence, replicate 1": 56979, "ATP luminescence, replicate 2": 57548}
{"gene": "Fas3 (Fasciclin 3)", "reagent no.": 2, "mean Z score": -0.0937, "ATP luminescence, replicate 1": 48989, "ATP luminescence, replicate 2": 43211}
{"gene": "Fas3 (Fasciclin 3)", "reagent no.": 3, "mean Z score": -0.411, "ATP luminescence, replicate 1": 44754, "ATP luminescence, replicate 2": 65537}
{"gene": "Nup358 (Nucleoporin 358kD)", "reagent no.": 1, "mean Z score": "3.73 (active)", "ATP luminescence, replicate 1": 1.25e5, "ATP luminescence, replicate 2": 1.13e5}
{"gene": "CG11155", "reagent no.": 1, "mean Z score": -0.5, "ATP luminescence, replicate 1": 69052, "ATP luminescence, replicate 2": 53450}
{"gene": "CG11155", "reagent no.": 2, "mean Z score": 0.378, "ATP luminescence, replicate 1": 50229, "ATP luminescence, replicate 2": 50315}
{"gene": "CG11155", "reagent no.": 3, "mean Z score": 0.265, "ATP luminescence, replicate 1": 66720, "ATP luminescence, replicate 2": 64216}
{"gene": "por (porcupine)", "reagent no.": 1, "mean Z score": 0.308, "ATP luminescence, replicate 1": 50189, "ATP luminescence, replicate 2": 50800}
{"gene": "por (porcupine)", "reagent no.": 2, "mean Z score": -0.43, "ATP luminescence, replicate 1": 51955, "ATP luminescence, replicate 2": 48234}
{"gene": "Or85d (Odorant receptor 85d)", "reagent no.": 1, "mean Z score": -0.121, "ATP luminescence, replicate 1": 35393, "ATP luminescence, replicate 2": 53675}
{"gene": "Or85d (Odorant receptor 85d)", "reagent no.": 2, "mean Z score": -0.181, "ATP luminescence, replicate 1": 72277, "ATP luminescence, replicate 2": 47683}
{"gene": "PGRP-SB2 (Peptidoglycan recognition protein SB2)", "reagent no.": 1, "mean Z score": -0.0433, "ATP luminescence, replicate 1": 38599, "ATP luminescence, replicate 2": 47514}
{"gene": "smog", "reagent no.": 1, "mean Z score": 0.608, "ATP luminescence, replicate 1": 59071, "ATP luminescence, replicate 2": 49572}
{"gene": "smog", "reagent no.": 2, "mean Z score": 0.623, "ATP luminescence, replicate 1": 58986, "ATP luminescence, replicate 2": 53721}
{"gene": "smog", "reagent no.": 3, "mean Z score": 0.127, "ATP luminescence, replicate 1": 62440, "ATP luminescence, replicate 2": 54973}
{"gene": "kcc (kazachoc)", "reagent no.": 1, "mean Z score": -0.381, "ATP luminescence, replicate 1": 27765, "ATP luminescence, replicate 2": 29915}
{"gene": "kcc (kazachoc)", "reagent no.": 2, "mean Z score": -0.495, "ATP luminescence, replicate 1": 43485, "ATP luminescence, replicate 2": 43639}
{"gene": "CG11367", "reagent no.": 1, "mean Z score": 0.471, "ATP luminescence, replicate 1": 61009, "ATP luminescence, replicate 2": 63770}

A few values from the entries so far.
Entry for CG11155 #3 in “mean Z score”: 0.265
Fas3 (Fasciclin 3) #2, ATP luminescence, replicate 2 = 43211
For “mean Z score”, smog #3 has 0.127

The listing continues.
{"gene": "Strn-Mlck (Stretchin-Mlck)", "reagent no.": 1, "mean Z score": -0.397, "ATP luminescence, replicate 1": 27765, "ATP luminescence, replicate 2": 28742}
{"gene": "Strn-Mlck (Stretchin-Mlck)", "reagent no.": 2, "mean Z score": -0.834, "ATP luminescence, replicate 1": 62947, "ATP luminescence, replicate 2": 51321}
{"gene": "Strn-Mlck (Stretchin-Mlck)", "reagent no.": 3, "mean Z score": -0.297, "ATP luminescence, replicate 1": 43742, "ATP luminescence, replicate 2": 42730}
{"gene": "CG17841", "reagent no.": 1, "mean Z score": -0.754, "ATP luminescence, replicate 1": 36165, "ATP luminescence, replicate 2": 38902}
{"gene": "CG17841", "reagent no.": 2, "mean Z score": 0.0767, "ATP luminescence, replicate 1": 62844, "ATP luminescence, replicate 2": 62301}
{"gene": "btl (breathless)", "reagent no.": 1, "mean Z score": -0.369, "ATP luminescence, replicate 1": 68676, "ATP luminescence, replicate 2": 53797}
{"gene": "btl (breathless)", "reagent no.": 2, "mean Z score": 0.777, "ATP luminescence, replicate 1": 46057, "ATP luminescence, replicate 2": 78534}
{"gene": "btl (breathless)", "reagent no.": 3, "mean Z score": -0.108, "ATP luminescence, replicate 1": 50172, "ATP luminescence, replicate 2": 42435}
{"gene": "Gr64b + Gr64c", "reagent no.": 1, "mean Z score": -0.267, "ATP luminescence, replicate 1": 66154, "ATP luminescence, replicate 2": 57923}
{"gene": "Gr64b + Gr64c", "reagent no.": 2, "mean Z score": 0.119, "ATP luminescence, replicate 1": 78537, "ATP luminescence, replicate 2": 65298}
{"gene": "Gr64b + Gr64c", "reagent no.": 3, "mean Z score": 0.097, "ATP luminescence, replicate 1": 61938, "ATP luminescence, replicate 2": 59483}
